The assay has as its system BDF1 mice, L1210 6-MP/6-TG resistant leukemia ip, survival T/C. Nature of the assay: NCI In Vivo Anticancer Drug Screen. Data for tumor model L1210 Leukemia resistant to 6-MP and 6-Thioguanine; NSC 755, NSC 752 (intraperitoneal) in B6D2F1 (BDF1) mice. The following applies: T/C endpoint: mean survival time, higher T/C = longer survival. Here is the method: The antitumor activity of compounds was measured in mice bearing transplantable tumors. Survival or tumor size were measured and the results are expressed as the measurement made in the treated group (T) divided by the measurement made in the vehicle treated control group (C). The tumor model used in this assay is L1210 Leukemia resistant to 6-MP and 6-Thioguanine; NSC 755, NSC 752 (intraperitoneal) in B6D2F1 (BDF1) mice

Where [1] appears, read: dose: 0.5 mg/kg/injection, schedule: Q01DX Z (ip), vehicle: carboxymethylcellulose (CMC).
Setting [2] is: dose: 1.25 mg/kg/injection, schedule: Q01DX Z (ip), vehicle: carboxymethylcellulose (CMC).
[3] abbreviates: dose: 1.87 mg/kg/injection, schedule: Q01DX Z (ip), vehicle: saline.
Where [4] appears, read: dose: 3.75 mg/kg/injection, schedule: Q01DX Z (ip), vehicle: saline.
Where [5] appears, read: dose: 7.5 mg/kg/injection, schedule: Q01DX Z (ip), vehicle: saline.
The mark [6] stands for this setting: dose: 0.25 mg/kg/injection, schedule: Q01DX Z (ip), vehicle: saline.
[7] abbreviates: dose: 0.5 mg/kg/injection, schedule: Q01DX Z (ip), vehicle: saline.
Setting [8] is: dose: 0.75 mg/kg/injection, schedule: Q01DX Z (ip), vehicle: saline.
Setting [9] is: dose: 1.0 mg/kg/injection, schedule: Q01DX Z (ip), vehicle: saline.
The mark [10] stands for this setting: dose: 2.5 mg/kg/injection, schedule: Q01DX Z (ip), vehicle: saline.
[11] abbreviates: dose: 5.0 mg/kg/injection, schedule: Q01DX Z (ip), vehicle: saline.

Molecules are shown by their SMILES. The list does not hold the whole screen: it covers a few groups of compounds. Not every dose and run of a compound is shown. T/C: endpoint of the treated group in % of that of the vehicle group. Where survival is the endpoint, this PubChem deposit counts one and a half times the control or more as active, and values a quarter to a half above the control carry no call in these data; other NCI protocols may use other cut-offs. Some T/C values are marked as having no survivor count here; that says nothing about deaths at the dose. Schedule codes are those of the source, taken here to give the interval after Q, in days (D) or hours (H), and the number of doses after X. Some schedule codes hold Z or #, which are not explained here. Some entries hold several experiments; the values are given in rising order.

As to `NC(Cc1cccc(N(CCCl)CCCl)c1)C(=O)O` (stereo not given), the T/C (dose: 0.12 mg/kg/injection, schedule: Q01DX Z (ip), vehicle: carboxymethylcellulose (CMC)) is 110 % of control [survivor count not shown]; the T/C (dose: 0.25 mg/kg/injection, schedule: Q01DX Z (ip), vehicle: carboxymethylcellulose (CMC)) is 104 % of control [survivor count not shown]; the T/C (dose: 0.37 mg/kg/injection, schedule: Q01DX Z (ip), vehicle: carboxymethylcellulose (CMC)) was 110 % of control [survivor count not shown]; the T/C under setting [1] was 122 % of control [survivor count not shown]; the T/C (dose: 0.62 mg/kg/injection, schedule: Q01DX Z (ip), vehicle: carboxymethylcellulose (CMC)) is 141 % of control [survivor count not shown]; the T/C under setting [2] is 230 % of control [survivor count not shown]. For the same compound, the T/C was 173 % of control [survivor count not shown] (dose: 2.5 mg/kg/injection, schedule: Q01DX Z (ip), vehicle: carboxymethylcellulose (CMC)); 119 % of control [survivor count not shown] (dose: 5.0 mg/kg/injection, schedule: Q01DX Z (ip), vehicle: carboxymethylcellulose (CMC)); 89 % of control [survivor count not shown] (dose: 7.5 mg/kg/injection, schedule: Q01DX Z (ip), vehicle: carboxymethylcellulose (CMC)).
Take `ClCCN(CCCl)Cc1nc2ccccc2[nH]1`: the T/C runs as follows: under setting [3], 125 % of control [survivor count not shown]; under setting [4], 125 % of control [survivor count not shown]; under setting [5], 167 % of control [survivor count not shown]; (dose: 10.0 mg/kg/injection, schedule: Q01DX Z (ip), vehicle: saline) 122 [survivor count not shown] and 156 % of control [survivor count not shown]; (dose: 15.0 mg/kg/injection, schedule: Q01DX Z (ip), vehicle: saline) 125 % of control [survivor count not shown]; (dose: 20.0 mg/kg/injection, schedule: Q01DX Z (ip), vehicle: saline) 102 % of control [survivor count not shown].
As to `CC(C(=O)O)N(CCCl)CCCl` (stereo not given), the T/C by setting is: under setting [6], 145 % of control [survivor count not shown]; under setting [7], 139 % of control [survivor count not shown]; under setting [8], 161 % of control [survivor count not shown]; (dose: 0.93 mg/kg/injection, schedule: Q01DX Z (ip), vehicle: saline) 242 % of control [survivor count not shown]; under setting [9], 214 % of control [survivor count not shown]; under setting [3], 184 % of control [survivor count not shown]. The T/C runs as follows: under setting [10], 162 % of control [survivor count not shown]; under setting [4], 143 % of control [survivor count not shown]; under setting [11], 115 % of control [survivor count not shown]; (dose: 50.0 micrograms/kg/injection, schedule: Q01DX Z (ip), vehicle: saline) 108 % of control [survivor count not shown]; (dose: 75.0 micrograms/kg/injection, schedule: Q01DX Z (ip), vehicle: saline) 107 % of control [survivor count not shown]; (dose: 100.0 micrograms/kg/injection, schedule: Q01DX Z (ip), vehicle: saline) 108 % of control [survivor count not shown]. Moreover, the T/C (dose: 150.0 micrograms/kg/injection, schedule: Q01DX Z (ip), vehicle: saline) is 112 % of control [survivor count not shown].
Take `ClCCNCCCl`: the T/C is, setting by setting: (dose: 25.0 mg/kg/injection, schedule: Q01DX Z (ip), vehicle: saline) 109 % of control [survivor count not shown]; (dose: 50.0 mg/kg/injection, schedule: Q01DX Z (ip), vehicle: saline) 123 % of control [survivor count not shown]; (dose: 100.0 mg/kg/injection, schedule: Q01DX Z (ip), vehicle: saline) 100 % of control [survivor count not shown].
Regarding `O=C(O)CN(CCCl)CCCl`, the T/C (dose: 0.37 mg/kg/injection, schedule: Q01DX Z (ip), vehicle: saline) is 129 % of control [survivor count not shown]; the T/C under setting [8] was 130 % of control [survivor count not shown]; the T/C under setting [3] is 172 % of control [survivor count not shown]; the T/C under setting [10] is 209 % of control [survivor count not shown]; the T/C under setting [4] is 219 % of control [survivor count not shown]; the T/C under setting [11] was 159 % of control [survivor count not shown].
Take `Nc1ncnc2c1ncn2CCN(CCCl)CCCl`: the T/C under setting [6] is 109 % of control [survivor count not shown]; the T/C under setting [7] was 128 % of control [survivor count not shown]; the T/C (dose: 0.62 mg/kg/injection, schedule: Q01DX015 (ip), vehicle: saline) is 128 % of control [survivor count not shown]; the T/C under setting [9] was 140 % of control [survivor count not shown]; the T/C (dose: 1.25 mg/kg/injection, schedule: Q01DX015 (ip), vehicle: saline) was 150 % of control [survivor count not shown]; the T/C (dose: 2.0 mg/kg/injection, schedule: Q01DX Z (ip), vehicle: saline) is 166 % of control [survivor count not shown]. In addition, the T/C (dose: 2.5 mg/kg/injection, schedule: Q01DX015 (ip), vehicle: saline) is 198 % of control [survivor count not shown]; the T/C (dose: 3.3 mg/kg/injection, schedule: Q01DX Z (ip), vehicle: saline) is 191 % of control [survivor count not shown]; the T/C (dose: 5.0 mg/kg/injection, schedule: Q01DX015 (ip), vehicle: saline) is 172 % of control [survivor count not shown]; the T/C under setting [11] was 124 % of control [survivor count not shown]; the T/C under setting [5] is 127 % of control [survivor count not shown]; the T/C (dose: 11.2 mg/kg/injection, schedule: Q01DX Z (ip), vehicle: saline) is 87 % of control [survivor count not shown].
Regarding `NC(Cc1ccccc1N(CCCl)CCCl)C(=O)O` (stereo not given), the T/C reads like this: under setting [1], 242 % of control [survivor count not shown]; (dose: 1.0 mg/kg/injection, schedule: Q01DX Z (ip), vehicle: carboxymethylcellulose (CMC)) 231 % of control [survivor count not shown]; under setting [2], 142 % of control [survivor count not shown]; (dose: 1.87 mg/kg/injection, schedule: Q01DX Z (ip), vehicle: carboxymethylcellulose (CMC)) 93 % of control [survivor count not shown]; (dose: 2.0 mg/kg/injection, schedule: Q01DX Z (ip), vehicle: carboxymethylcellulose (CMC)) 139 % of control [survivor count not shown]; (dose: 4.0 mg/kg/injection, schedule: Q01DX Z (ip), vehicle: carboxymethylcellulose (CMC)) 86 % of control [survivor count not shown].

(Values after PubChem BioAssay AID308 (DTP/NCI, 2004).)
